This is one part of the list. The main result of the screen is listed elsewhere. These columns were measured beside it and carry no call. The list favours compounds with an active or inconclusive main result. The note in brackets gives the kind of curve behind each potency; many fits are weak.
Experiment: qHTS Assay to Find Inhibitors of Chronic Active B-Cell Receptor Signaling
Conditions: ABC-DLBCL IkBa-CBG/CBR reporter, luminescence ratio (green luciferase fused to IkBa over red control in TMD8 lymphoma cells), 4 h
In short: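 Compounds up to 46 uM were incubated four hours with TMD8 cells whose green CBG68 luciferase is fused to IkappaBalpha; red CBR luminescence normalised the signal, and concentration-effect curves were fitted to fusion, red and ratio data.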

[1] = measured here: CBR red luminescence, cell number
[2] = measured here: IkBa-CBG green luminescence

COc1ccc(C(=O)c2sc(Nc3cccc(OC)c3)c(C(=O)Nc3cccc(C)c3C)c2N)cc1
AC50 [1]: 5.8 µM [falling, partial curve, poor fit]

O=C(NCc1ccco1)c1cc(C(=O)C2CCCCC2)c[nH]1
AC50 [1]: 15.8 µM [rising, partial curve, poor fit]

COc1cc(/C=C2\S/C(=N/S(=O)(=O)c3ccccc3)NC2=O)c([N+](=O)[O-])cc1OC
AC50 [1]: 20.6 µM [rising, single point] | AC50 [2]: 20.6 µM [falling, single point]

COC(=O)c1ccc(NCC(=O)c2ccccc2)cc1
AC50 [1]: 1.58 µM [rising, partial curve, poor fit]

COc1cccc(CNCC(O)(c2ccc(Cl)cc2)c2ccc(Cl)cc2)c1
AC50 [1]: 10 µM [falling, partial curve]

COC(=O)[C@H](CC(C)C)NC(=O)Cn1cnc2c(NCc3ccccc3)ncnc21
AC50 [1]: 6.51 µM [rising, single point]

S=c1[nH]nc(-c2ccncc2)n1/N=C/c1cccc2ccccc12
AC50 [1]: 0.92 µM [rising, full curve, poor fit]

COc1ccc(CC(=O)NCc2ccc3c(c2)CCN3C(=O)c2ccc(Cl)cc2)cc1OC
AC50 [1]: 20 µM [falling, single point]

COc1cc(SC)ccc1C(=O)Nc1ccc(C)cc1
AC50 [1]: 11.2 µM [falling, partial curve, poor fit]

O=C(N/N=C/c1cccnc1)c1cc(-c2ccccc2OCc2ccccc2)n[nH]1
AC50 [1]: 11.2 µM [falling, partial curve]

COc1ccccc1NS(=O)(=O)c1cc(NC(=O)c2cccs2)ccc1N1CCCCC1
AC50 [1]: 23.1 µM [falling, partial curve, poor fit]

c1ccc(-c2csc(Nc3ccccn3)n2)cc1
AC50 [1]: 2.24 µM [falling, full curve]

O=C(Cn1nc(Cc2cccnc2)c2ccccc2c1=O)Nc1ccc2c(c1)OCO2
AC50 [1]: 23.1 µM [rising, single point]

CCOCCCn1c(SCC(=O)Nc2cc(C(C)(C)C)nn2-c2ccccc2)nc2ccccc2c1=O
AC50 [1]: 25.9 µM [falling, single point]

Cc1cc(C)nc(N/N=C/c2cccc(Cl)c2)n1
AC50 [1]: 14.1 µM [falling, single point]

COc1ccc(NC(=O)CN2CCN(S(=O)(=O)c3ccc(Br)cc3)CC2)c(OC)c1
AC50 [1]: 0.562 µM [rising, partial curve, poor fit]

Nc1c2c(nc3sc4c(c13)CCCC4)-c1ccccc1CC2
AC50 [1]: 2.82 µM [rising, partial curve, poor fit]

O=c1c(-c2ccc(Cl)cc2)c[nH]n1-c1ccccc1
AC50 [1]: 0.398 µM [falling, full curve]

Cc1c(NC(=O)CSc2nnc(C(C)Oc3ccc(Cl)cc3)n2-c2ccccc2)c(=O)n(-c2ccccc2)n1C (stereo not drawn)
AC50 [1]: 7.08 µM [falling, partial curve, poor fit]

Cc1ccc(NC(=O)c2cc(-c3ccc(C)o3)nc3ccccc23)cc1
AC50 [1]: 17.8 µM [falling, single point]

O=C(/C=C/c1ccccc1)Nc1ccc(C(=O)N2CCCCC2)cc1
AC50 [1]: 6.31 µM [falling, single point]

O=c1c(-c2ccc(Cl)cc2)[n+]([O-])c2ccccc2n1O
AC50 [1]: 1.46 µM [rising, partial curve]

Cc1ccc(C(=O)Nc2ccc3c(c2)C(=O)NC3=O)cc1
AC50 [1]: 0.891 µM [falling, full curve, poor fit]

Cc1ccc(C(=O)Nc2nc(C)c(C(=O)Nc3ccc4c(c3)CCC4)s2)cc1
AC50 [1]: 3.26 µM [rising, partial curve, poor fit] | AC50 [2]: 3.66 µM [falling, full curve]

COc1cccc(/C=C/C(=O)Nc2ccc3c(c2)OCCO3)c1OC
AC50 [1]: 10 µM [falling, partial curve]

Cc1cccc2c1cnn2C(=O)CCC(=O)NCC(C)c1ccccc1 (stereo not drawn)
AC50 [1]: 31.6 µM [rising, partial curve, poor fit]

Cc1ccc(C(=O)N2CCN(c3ccc(C(F)(F)F)cn3)CC2)c(C)c1
AC50 [1]: 23.1 µM [rising, single point]

COCC(C)N=C1NN=C(c2cccs2)C(CC(=O)O)S1 (stereo not drawn)
AC50 [1]: 35.5 µM [rising, single point]

Cc1ccccc1N=CC1=C(O)c2ccccc2C1=O
AC50 [1]: 7.94 µM [falling, partial curve, poor fit]

CCOC(=O)NC(=O)CSc1ccc2ccccc2n1
AC50 [1]: 22.4 µM [falling, single point]

O=C(O)c1cccc(N2CCCCS2(=O)=O)c1
AC50 [1]: 13 µM [falling, partial curve, poor fit]

CCOC(=O)c1ccc(NC(=O)COc2ccc(CNC3CCCCC3)cc2OC)cc1
AC50 [1]: 12.6 µM [falling, single point]

COc1ccc(CC(=O)N/N=C(\C)CC(=O)Nc2cccc(F)c2)cc1
AC50 [1]: 20 µM [falling, single point]

O=C(CNS(=O)(=O)/C=C/c1ccccc1)OC1CCOC1=O (stereo not drawn)
AC50 [1]: 35.5 µM [rising, partial curve, poor fit]

CCc1ccc(NC(=O)c2cnn(-c3ccccc3)c2C2CCNCC2)cc1
AC50 [1]: 14.1 µM [falling, partial curve, poor fit] | AC50 [2]: 20 µM [falling, partial curve, poor fit]

NC(=O)c1ccc(NC(=O)COC(=O)c2ccc3c(c2)OCCO3)cc1
AC50 [1]: 5.62 µM [rising, single point]

COc1ccccc1/C=C/C(=O)c1ccc(Cl)cc1
AC50 [1]: 11.2 µM [falling, partial curve, poor fit]

COc1cccc(-c2c(NC(C)=O)n(C)c3ccccc3c2=O)c1
AC50 [1]: 0.631 µM [rising, full curve, poor fit]

O=C(CSc1nc(-c2ccccc2)cs1)Nc1nccs1
AC50 [1]: 9.2 µM [rising, partial curve, poor fit]

C/C(=C\c1ccco1)C1C(C#N)=C(N)OC2=C1C(=O)CC(C)(C)C2 (stereo not drawn)
AC50 [1]: 25.9 µM [falling, single point]
